PubChem BioAssay AID624297 (National Center for Advancing Translational Sciences (NCATS), 2012)
Out of some 340,000 compounds screened, about 6,200 (1.8%) were called active. The shares of active, inactive and inconclusive entries below differ from those in the screen. Calls come from the whole dose curve; as a rule, active = well fitted activation curve with a large enough effect; inconclusive = small, poorly fitted or top-dose-only effect; inactive = no such curve, though single readings can be large or run the other way. Where the call is inconclusive, the potency comes from a doubtful curve fit.

assay: A quantitative high throughput screen for small molecules that induce DNA re-replication in SW480 colon adenocarcinoma cells.; note: nearly all actives have a fitted effect of over 55% in size; for re-replication activation: % of control where 0% means no effect; details: Hoechst DNA content imaging, 48 h; re-replication activation: at 46.1 µM (top of the series) unless noted
How it was run: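 Hoechst fluorescence of nuclei (405 nm excitation, 500-530 nm emission) measured by plate-scanning imager after 48 hr compound exposure at 37 C; re-replication scored as increased number of nuclei with elevated intensity.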
Potency is the fitted concentration of half-maximal effect.

SMILES	Potency	re-replication activation
O=C(C1CCC(CNS(=O)(=O)c2cccc3cccnc23)CC1)N1CCc2ccccc21 (stereo not drawn)	inconclusive: 20.6 µM [activator, partial curve, poor fit]	
c1ccc(Cn2cc(-c3ccccc3)cn2)cc1	inactive	
CCc1noc(C)c1C(=O)Nc1cccc(S(=O)(=O)N2CCCCCC2)c1	inconclusive: 25.9 µM [activator, partial curve, poor fit]	
CCNC(=S)NNC(=S)NCc1ccccc1	inconclusive: 32.6 µM [activator, partial curve, poor fit]	
CC(=O)c1ccc(N2CCN(CC(O)COC(c3ccccc3)c3ccccc3C)CC2)cc1 (stereo not drawn)	inconclusive: 29.1 µM [activator, single point]	
CCCc1cc(=O)oc2cc(C)cc(OC(C)C(=O)N[C@@H](Cc3c[nH]c4ccccc34)C(=O)O)c12 (stereo partly drawn)	inactive	
O=C(Nc1ccccc1)Nc1ccc(C(=O)N2CCCC2)cc1	inconclusive: 3.66 µM [activator, partial curve, poor fit]	
Cc1cc2nc(/C(C#N)=C\c3ccc(-c4ccccc4C(=O)O)o3)[nH]c2cc1C	inactive	
COc1ccc(CN(C)C(C)C(=O)Nc2ccc([N+](=O)[O-])cc2Cl)cc1OC (stereo not drawn)	inconclusive: 0.164 µM [activator, full curve, poor fit]	
Cc1ccc(C(=O)c2cnc3cc4c(cc3c2S(=O)(=O)c2ccccc2)OCCO4)cc1	inconclusive: 29.1 µM [activator, single point]	
COc1ccc(OC)c(C2CC(c3c(-c4ccccc4)c4cc(Cl)ccc4[nH]c3=O)=NN2S(C)(=O)=O)c1 (stereo not drawn)	inconclusive: 29.1 µM [activator, single point]	
COc1cccc(CN(C)C(=O)c2ccc(OCC(=O)N3CCOCC3)c(OC)c2)c1	inconclusive: 18.4 µM [activator, single point]	
CCOc1ccc(OCCC(=O)OCC(=O)NC(C)c2ccccc2)cc1 (stereo not drawn)	inconclusive: 32.6 µM [activator, partial curve, poor fit]	
CCCCN(CC)CCNC(=O)c1cc2c(=O)[nH]c3ccccc3c2n1C	inconclusive: 32.6 µM [activator, single point]	
CC(NC(=S)Nc1ccc(F)cc1)C(c1cccs1)N1CCOCC1 (stereo not drawn)	inactive	
CCOC(=O)c1[nH]c(C(=O)O)c(CCN(CC)CC)c1C	inactive	
CN(C)S(=O)(=O)c1cc(NC(=O)COC(=O)/C=C/c2ccco2)ccc1Cl	inconclusive: 29.1 µM [activator, single point]	
CCCC(C(=O)NCc1ccco1)N(C(=O)CNS(=O)(=O)c1ccccc1)c1ccc(OC)cc1 (stereo not drawn)		inactive: 11.1% [at 1.84 µM]
Cc1nn2c(NCc3ccccn3)cc(C(C)C)nc2c1-c1ccccc1	inconclusive: 9.2 µM [activator, single point]	
O=C(CCN1CCc2ccccc21)c1ccc2c(c1)OCCO2	inconclusive: 29.1 µM [activator, partial curve, poor fit]	
CCOC(=O)c1c(CN2CCN(CCO)CC2)n(C)c2cc(Br)c(OC)cc12	inconclusive: 29.1 µM [activator, single point]	
C[C@]12CC[C@H]3c4ccc(O)cc4CC[C@@H]3[C@H]1CC[C@@H]2OP(=O)(O)O	inactive	
CC(C)Cn1c(=O)c(C(=O)NCc2ccccn2)c(O)c2ccccc21	inconclusive: 18.4 µM [activator, partial curve, poor fit]	

Of the compounds above, these have two or more sulfur atoms:
SMILES	Potency	re-replication activation
CCNC(=S)NNC(=S)NCc1ccccc1	inconclusive: 32.6 µM [activator, partial curve, poor fit]	
CC(NC(=S)Nc1ccc(F)cc1)C(c1cccs1)N1CCOCC1 (stereo not drawn)	inactive	

Continuation:

SMILES	Potency	re-replication activation
COc1ccc(-n2c(SCC(=O)NC3CC3)nc3ccccc3c2=O)cc1OC	inconclusive: 0.731 µM [activator, partial curve, poor fit]	
O=c1nc(N/N=C/C=C/c2ccccc2)cn[nH]1	inconclusive: 18.4 µM [activator, single point]	
O=C(CNC(=O)c1ccccc1Cl)N/N=C/c1ccc2c(c1)OCO2	inconclusive: 20.6 µM [activator, single point]	
CN(C)C(=O)c1ccc(NC(=O)COC(=O)C2(c3ccccc3)CCCC2)cc1	inactive	
COc1cc(OC)cc(-c2c(-c3ccc(F)cc3)c3cc(-c4ccc5cc[nH]c5c4)ccc3n2C)c1	inconclusive: 29.1 µM [activator, single point]	
CCC[C@@H]1CCCO[C@@](C(=O)NCc2cc(C)n(C)n2)(C(F)(F)F)C1	inconclusive: 29.1 µM [activator, single point]	
O=C(COc1ccccc1C(=O)c1cnn(-c2ccccc2)c1)Nc1ccccc1	inconclusive: 18.4 µM [activator, single point]	
C/C(=N\NC(=O)c1nnn(-c2nonc2N)c1-c1cccs1)c1cccnc1	inconclusive: 3.26 µM [activator, single point]	
COc1cc2c(cc1O)CC[C@@H]1[C@@H]2CC[C@]2(C)[C@@H](O)CC[C@@H]12	active: 3.26 µM	
Cc1ccc(-n2nc(C)c(NC(=O)CCl)c2C)cc1C	inconclusive: 16.4 µM [activator, single point]	
CN(CCOC(=O)/C=C/c1ccccc1)C(C)(C)C	inconclusive: 29.1 µM [activator, single point]	
Cn1ccnc1/C(=N\NC(=O)c1ccccc1)c1cccc([N+](=O)[O-])c1	inactive	
Cc1c(/C=N/Nc2ccc(C(=O)O)cc2)c2ccccc2n1C	inconclusive: 20.6 µM [activator, single point]	
CC1(C)CC(=O)C(C=Nc2ccccc2C(=O)O)=C(O)C1	inactive	
COc1cc(C(CCN2CCCCC2)c2c(OC)cc(OC)c3c(-c4ccccc4)cc(=O)oc23)cc(OC)c1OC (stereo not drawn)	inactive	
O=C(NCCc1ccccn1)c1ccc(OC2CCN(CCc3ccccc3)CC2)cc1	inactive	
COc1cccc(OCC(O)CN2CCC(CN3C(=O)c4cccc5cccc(c45)C3=O)CC2)c1 (stereo not drawn)	inconclusive: 16.4 µM [activator, single point]	
O=C(Nc1ccc(Cl)c(Cl)c1)OCc1cccnc1	inactive	
COc1cc(NC(=O)CSc2nnc(-c3ccncc3)o2)cc(OC)c1OC	inactive	
O=[N+]([O-])c1ccc(N2CCN(C(=S)Nc3ccc(F)cc3)CC2)cc1	inactive	
COc1ccc(NC(=O)CCC(=O)N2CCN(S(=O)(=O)c3ccc(C)cc3)CC2)c(OC)c1	inconclusive: 29.1 µM [activator, single point]	
Fc1cccc(Cl)c1CSc1nnc(-c2ccncc2)o1	inactive	
Cc1csc(NC(=O)CSC2=NS(=O)(=O)c3cc(F)ccc3N2)n1	inactive	

SMILES	Potency	re-replication activation
Cc1nc(SCC(=O)NCc2ccc3c(c2)OCO3)c(C#N)c2c1CCCC2	inactive	
N#Cc1c2ccc(OCC(=O)NCc3ccco3)cc2n2ccccc12	inconclusive: 11.6 µM [activator, partial curve, poor fit]	
O=C1[C@H]2[C@@H](C3CC3)N3C(=O)CN(CC4CC4)C(=O)[C@@]3(Cc3ccccc3)[C@H]2C(=O)N1c1ccccc1	inactive	
CC(=O)/C=C/n1c(=S)oc2ccccc21	inactive	
CCc1ccc(C(=O)C[n+]2cccc3cc(OC)ccc32)cc1	inactive	
N#Cc1cn(-c2ccccc2)nc1C(=O)c1ccccc1	inconclusive: 20.6 µM [activator, single point]	
CCOC(=O)c1c(-c2ccc(OC)cc2)oc2ccc(O)cc12	inactive	
CCOC(=O)c1c(CSC(=N)N)n(C)c2cc(Br)c(OC(C)=O)cc12	inactive	
CCc1nc(SCC(=O)Nc2nc3c(s2)CCCC3)c2ccccc2n1	inconclusive: 20.6 µM [activator, single point]	
COc1ccccc1CN1C[C@@H]2C[C@@H](C3=Cc4cc(Cl)ccc4OC3)N3CCC[C@@]23C1=O	inconclusive: 20.6 µM [activator, single point]	
CCN1C[C@@H]2[C@@H]3C(=O)N(C)C(=O)[C@@H]3[C@](C)(C1=O)N2C(=O)c1ccc(Cl)cc1	inconclusive: 29.1 µM [activator, single point]	
CC(C(=O)N1CCc2ccccc21)N1CCN(Cc2ccccc2)CC1 (stereo not drawn)	inconclusive: 29.1 µM [activator, single point]	
Cc1ccc(C(=O)N/C(=C\c2ccc(-c3ccc(Br)cc3)o2)C(=O)NCCCN(C)C)cc1	active: 7.31 µM	
Cc1nn(Cc2c(Cl)cccc2Cl)c(Cl)c1/C=C/C(=O)OCC(=O)NCC(F)(F)F	inactive	
NC(=O)COc1ccc2oc(=O)cc(-c3cc4ccccc4o3)c2c1	inconclusive: 0.461 µM [activator, full curve, poor fit]	
Cc1cccc(N2CCN(C(=S)c3ccc4c(c3)OCO4)CC2)c1	active: 6.51 µM	
CCN(CC)S(=O)(=O)c1ccc(N2CCCC2)c(C(=O)Nc2ccc(OC)c(Cl)c2)c1	inconclusive: 3.66 µM [activator, partial curve, poor fit]	
Cc1ccc(NC(=O)c2ccc(CSc3ccccn3)cc2)cc1	inactive	
CCCNC(=O)c1ccccc1NC(=O)c1ccccc1N(C)S(=O)(=O)c1ccccc1	inconclusive: 20.6 µM [activator, single point]	
Cc1ccc(N2CC(C(=O)N(C)CC(=O)Nc3ccc(Cl)c(C(F)(F)F)c3)CC2=O)cc1 (stereo not drawn)	inconclusive: 23.1 µM [activator, partial curve, poor fit]	
CCOC(=O)c1[nH]c2ccc(Br)cc2c1NC(=O)CCN1CCCC(C)(C)C1	inconclusive: 29.1 µM [activator, single point]	
CCN(Cc1nc2cc(Cl)ccc2c(=O)[nH]1)C(=O)CN1C(=O)NC2(CCCCC2C)C1=O (stereo not drawn)	inconclusive: 18.4 µM [activator, partial curve, poor fit]	
